Reference: article PMC7295033

By UniProt entry, the sequences of proteins in these tests, tags left out.
UniProt Q60857: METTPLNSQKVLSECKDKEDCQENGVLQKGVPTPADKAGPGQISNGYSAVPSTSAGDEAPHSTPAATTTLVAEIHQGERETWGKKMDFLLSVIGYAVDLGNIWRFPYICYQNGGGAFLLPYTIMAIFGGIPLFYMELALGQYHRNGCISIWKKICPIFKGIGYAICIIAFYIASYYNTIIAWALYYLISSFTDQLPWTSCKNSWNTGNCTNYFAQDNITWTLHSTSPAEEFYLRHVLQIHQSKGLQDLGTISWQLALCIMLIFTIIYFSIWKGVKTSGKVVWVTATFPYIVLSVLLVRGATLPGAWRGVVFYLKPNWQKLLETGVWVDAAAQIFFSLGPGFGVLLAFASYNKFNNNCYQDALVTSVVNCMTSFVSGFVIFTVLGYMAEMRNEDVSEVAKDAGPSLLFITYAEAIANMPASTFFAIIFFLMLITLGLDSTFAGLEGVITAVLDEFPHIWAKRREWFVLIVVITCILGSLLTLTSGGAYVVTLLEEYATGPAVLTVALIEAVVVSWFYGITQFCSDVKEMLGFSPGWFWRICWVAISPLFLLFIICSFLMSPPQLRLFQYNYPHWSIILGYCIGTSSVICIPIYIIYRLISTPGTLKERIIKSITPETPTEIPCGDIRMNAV
UniProt Q3UHD9: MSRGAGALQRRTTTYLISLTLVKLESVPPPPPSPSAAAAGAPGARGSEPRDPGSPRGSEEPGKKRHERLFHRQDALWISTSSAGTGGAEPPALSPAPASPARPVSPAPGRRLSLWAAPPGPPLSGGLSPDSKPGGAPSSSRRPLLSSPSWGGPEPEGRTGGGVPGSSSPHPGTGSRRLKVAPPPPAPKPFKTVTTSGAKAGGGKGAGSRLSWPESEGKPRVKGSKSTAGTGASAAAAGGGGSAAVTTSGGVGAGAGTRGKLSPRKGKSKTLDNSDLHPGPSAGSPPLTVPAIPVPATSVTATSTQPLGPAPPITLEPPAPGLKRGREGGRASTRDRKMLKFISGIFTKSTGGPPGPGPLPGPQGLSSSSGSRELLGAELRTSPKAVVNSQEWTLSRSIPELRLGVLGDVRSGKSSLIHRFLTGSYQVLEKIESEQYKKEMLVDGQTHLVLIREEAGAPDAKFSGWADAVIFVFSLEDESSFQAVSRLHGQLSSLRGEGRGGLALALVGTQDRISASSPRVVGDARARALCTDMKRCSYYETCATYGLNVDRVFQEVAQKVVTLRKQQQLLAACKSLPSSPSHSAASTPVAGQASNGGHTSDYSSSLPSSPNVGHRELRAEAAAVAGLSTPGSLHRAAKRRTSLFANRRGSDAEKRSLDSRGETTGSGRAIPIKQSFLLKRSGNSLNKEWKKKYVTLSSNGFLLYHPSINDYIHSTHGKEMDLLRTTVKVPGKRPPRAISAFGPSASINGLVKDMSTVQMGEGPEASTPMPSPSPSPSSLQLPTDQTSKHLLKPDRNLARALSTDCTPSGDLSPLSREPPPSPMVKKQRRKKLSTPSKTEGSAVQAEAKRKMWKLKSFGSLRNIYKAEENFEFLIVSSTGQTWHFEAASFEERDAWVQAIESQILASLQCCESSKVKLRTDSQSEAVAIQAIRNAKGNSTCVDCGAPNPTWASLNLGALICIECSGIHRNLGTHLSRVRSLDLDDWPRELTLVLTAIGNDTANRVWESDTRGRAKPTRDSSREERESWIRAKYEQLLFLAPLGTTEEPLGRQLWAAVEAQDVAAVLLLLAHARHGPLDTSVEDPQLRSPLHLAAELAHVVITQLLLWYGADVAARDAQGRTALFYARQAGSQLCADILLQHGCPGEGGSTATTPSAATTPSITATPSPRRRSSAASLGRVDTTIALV
UniProt Q8BK63: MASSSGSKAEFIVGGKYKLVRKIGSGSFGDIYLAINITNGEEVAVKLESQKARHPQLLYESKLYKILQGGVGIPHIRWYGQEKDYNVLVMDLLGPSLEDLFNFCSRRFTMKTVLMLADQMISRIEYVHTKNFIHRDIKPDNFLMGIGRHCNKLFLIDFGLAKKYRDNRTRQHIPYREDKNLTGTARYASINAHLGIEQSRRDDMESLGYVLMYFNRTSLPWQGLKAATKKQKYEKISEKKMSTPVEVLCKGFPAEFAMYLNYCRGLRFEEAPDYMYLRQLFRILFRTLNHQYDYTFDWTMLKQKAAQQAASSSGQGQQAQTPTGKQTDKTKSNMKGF
UniProt P07934: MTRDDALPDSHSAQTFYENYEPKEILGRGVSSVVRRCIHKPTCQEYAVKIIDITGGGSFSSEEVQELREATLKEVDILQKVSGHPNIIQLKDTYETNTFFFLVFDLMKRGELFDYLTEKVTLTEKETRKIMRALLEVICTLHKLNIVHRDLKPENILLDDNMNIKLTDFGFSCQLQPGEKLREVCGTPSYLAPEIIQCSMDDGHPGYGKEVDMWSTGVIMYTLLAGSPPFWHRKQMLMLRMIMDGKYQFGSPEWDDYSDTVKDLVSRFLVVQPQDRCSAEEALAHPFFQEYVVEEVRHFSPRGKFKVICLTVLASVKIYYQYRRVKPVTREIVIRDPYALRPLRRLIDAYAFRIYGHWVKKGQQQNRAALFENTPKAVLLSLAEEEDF
UniProt P28652: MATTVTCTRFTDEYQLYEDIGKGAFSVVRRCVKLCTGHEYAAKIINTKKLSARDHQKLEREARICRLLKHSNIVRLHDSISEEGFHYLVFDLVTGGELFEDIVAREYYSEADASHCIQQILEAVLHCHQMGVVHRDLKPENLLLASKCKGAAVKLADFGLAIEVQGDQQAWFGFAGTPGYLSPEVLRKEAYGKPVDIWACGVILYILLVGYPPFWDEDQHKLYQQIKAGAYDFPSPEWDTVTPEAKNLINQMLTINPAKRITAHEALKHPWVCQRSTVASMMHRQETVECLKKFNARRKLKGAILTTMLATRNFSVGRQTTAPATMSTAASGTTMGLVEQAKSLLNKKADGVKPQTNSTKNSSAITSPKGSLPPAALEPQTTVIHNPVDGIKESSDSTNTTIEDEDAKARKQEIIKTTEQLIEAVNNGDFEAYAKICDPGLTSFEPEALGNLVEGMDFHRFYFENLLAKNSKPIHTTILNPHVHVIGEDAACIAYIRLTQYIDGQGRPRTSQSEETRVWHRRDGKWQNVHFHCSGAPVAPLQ
UniProt Q8C0T5: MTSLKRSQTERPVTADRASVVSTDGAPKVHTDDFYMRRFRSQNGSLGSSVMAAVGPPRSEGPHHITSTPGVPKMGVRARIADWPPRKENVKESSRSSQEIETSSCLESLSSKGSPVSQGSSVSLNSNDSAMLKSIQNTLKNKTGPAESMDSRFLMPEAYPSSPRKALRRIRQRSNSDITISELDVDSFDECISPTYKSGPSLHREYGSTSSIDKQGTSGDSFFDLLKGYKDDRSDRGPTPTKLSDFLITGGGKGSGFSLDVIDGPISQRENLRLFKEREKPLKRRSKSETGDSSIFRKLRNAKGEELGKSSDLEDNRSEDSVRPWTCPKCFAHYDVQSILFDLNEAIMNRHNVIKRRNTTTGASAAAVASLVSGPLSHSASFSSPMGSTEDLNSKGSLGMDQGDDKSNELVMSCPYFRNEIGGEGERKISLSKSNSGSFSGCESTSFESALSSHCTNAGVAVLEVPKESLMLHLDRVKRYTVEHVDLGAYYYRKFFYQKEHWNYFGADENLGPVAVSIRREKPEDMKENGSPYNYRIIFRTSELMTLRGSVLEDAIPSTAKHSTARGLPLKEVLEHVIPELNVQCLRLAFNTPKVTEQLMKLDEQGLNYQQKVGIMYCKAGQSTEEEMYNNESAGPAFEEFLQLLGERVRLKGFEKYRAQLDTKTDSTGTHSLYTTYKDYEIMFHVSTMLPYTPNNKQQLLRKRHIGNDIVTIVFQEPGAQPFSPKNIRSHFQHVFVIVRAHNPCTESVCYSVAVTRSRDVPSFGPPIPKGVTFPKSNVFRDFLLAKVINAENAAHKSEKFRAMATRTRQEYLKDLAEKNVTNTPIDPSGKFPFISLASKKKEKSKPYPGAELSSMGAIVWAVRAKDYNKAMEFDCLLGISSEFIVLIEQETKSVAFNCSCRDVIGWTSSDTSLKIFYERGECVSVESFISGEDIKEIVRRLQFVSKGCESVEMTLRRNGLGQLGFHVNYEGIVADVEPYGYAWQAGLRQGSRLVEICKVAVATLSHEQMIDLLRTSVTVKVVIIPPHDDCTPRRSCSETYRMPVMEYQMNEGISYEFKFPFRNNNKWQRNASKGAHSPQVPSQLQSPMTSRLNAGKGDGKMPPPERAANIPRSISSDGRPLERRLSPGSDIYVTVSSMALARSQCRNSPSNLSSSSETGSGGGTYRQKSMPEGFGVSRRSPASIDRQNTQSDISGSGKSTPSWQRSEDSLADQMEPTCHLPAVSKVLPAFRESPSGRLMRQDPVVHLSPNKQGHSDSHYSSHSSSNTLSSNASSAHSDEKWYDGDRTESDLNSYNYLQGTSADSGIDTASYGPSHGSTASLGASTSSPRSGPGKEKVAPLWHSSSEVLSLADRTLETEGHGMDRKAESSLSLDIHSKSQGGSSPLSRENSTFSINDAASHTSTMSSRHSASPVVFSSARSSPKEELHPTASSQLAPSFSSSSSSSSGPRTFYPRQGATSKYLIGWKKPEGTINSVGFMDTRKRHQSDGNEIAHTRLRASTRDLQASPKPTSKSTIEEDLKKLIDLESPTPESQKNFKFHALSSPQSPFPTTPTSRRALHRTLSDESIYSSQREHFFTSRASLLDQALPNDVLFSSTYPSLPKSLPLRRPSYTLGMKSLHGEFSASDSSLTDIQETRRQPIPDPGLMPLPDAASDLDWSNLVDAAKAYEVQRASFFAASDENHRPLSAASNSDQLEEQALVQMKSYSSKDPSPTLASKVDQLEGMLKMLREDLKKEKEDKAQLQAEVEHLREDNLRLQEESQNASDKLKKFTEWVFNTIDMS
UniProt Q4ACU6: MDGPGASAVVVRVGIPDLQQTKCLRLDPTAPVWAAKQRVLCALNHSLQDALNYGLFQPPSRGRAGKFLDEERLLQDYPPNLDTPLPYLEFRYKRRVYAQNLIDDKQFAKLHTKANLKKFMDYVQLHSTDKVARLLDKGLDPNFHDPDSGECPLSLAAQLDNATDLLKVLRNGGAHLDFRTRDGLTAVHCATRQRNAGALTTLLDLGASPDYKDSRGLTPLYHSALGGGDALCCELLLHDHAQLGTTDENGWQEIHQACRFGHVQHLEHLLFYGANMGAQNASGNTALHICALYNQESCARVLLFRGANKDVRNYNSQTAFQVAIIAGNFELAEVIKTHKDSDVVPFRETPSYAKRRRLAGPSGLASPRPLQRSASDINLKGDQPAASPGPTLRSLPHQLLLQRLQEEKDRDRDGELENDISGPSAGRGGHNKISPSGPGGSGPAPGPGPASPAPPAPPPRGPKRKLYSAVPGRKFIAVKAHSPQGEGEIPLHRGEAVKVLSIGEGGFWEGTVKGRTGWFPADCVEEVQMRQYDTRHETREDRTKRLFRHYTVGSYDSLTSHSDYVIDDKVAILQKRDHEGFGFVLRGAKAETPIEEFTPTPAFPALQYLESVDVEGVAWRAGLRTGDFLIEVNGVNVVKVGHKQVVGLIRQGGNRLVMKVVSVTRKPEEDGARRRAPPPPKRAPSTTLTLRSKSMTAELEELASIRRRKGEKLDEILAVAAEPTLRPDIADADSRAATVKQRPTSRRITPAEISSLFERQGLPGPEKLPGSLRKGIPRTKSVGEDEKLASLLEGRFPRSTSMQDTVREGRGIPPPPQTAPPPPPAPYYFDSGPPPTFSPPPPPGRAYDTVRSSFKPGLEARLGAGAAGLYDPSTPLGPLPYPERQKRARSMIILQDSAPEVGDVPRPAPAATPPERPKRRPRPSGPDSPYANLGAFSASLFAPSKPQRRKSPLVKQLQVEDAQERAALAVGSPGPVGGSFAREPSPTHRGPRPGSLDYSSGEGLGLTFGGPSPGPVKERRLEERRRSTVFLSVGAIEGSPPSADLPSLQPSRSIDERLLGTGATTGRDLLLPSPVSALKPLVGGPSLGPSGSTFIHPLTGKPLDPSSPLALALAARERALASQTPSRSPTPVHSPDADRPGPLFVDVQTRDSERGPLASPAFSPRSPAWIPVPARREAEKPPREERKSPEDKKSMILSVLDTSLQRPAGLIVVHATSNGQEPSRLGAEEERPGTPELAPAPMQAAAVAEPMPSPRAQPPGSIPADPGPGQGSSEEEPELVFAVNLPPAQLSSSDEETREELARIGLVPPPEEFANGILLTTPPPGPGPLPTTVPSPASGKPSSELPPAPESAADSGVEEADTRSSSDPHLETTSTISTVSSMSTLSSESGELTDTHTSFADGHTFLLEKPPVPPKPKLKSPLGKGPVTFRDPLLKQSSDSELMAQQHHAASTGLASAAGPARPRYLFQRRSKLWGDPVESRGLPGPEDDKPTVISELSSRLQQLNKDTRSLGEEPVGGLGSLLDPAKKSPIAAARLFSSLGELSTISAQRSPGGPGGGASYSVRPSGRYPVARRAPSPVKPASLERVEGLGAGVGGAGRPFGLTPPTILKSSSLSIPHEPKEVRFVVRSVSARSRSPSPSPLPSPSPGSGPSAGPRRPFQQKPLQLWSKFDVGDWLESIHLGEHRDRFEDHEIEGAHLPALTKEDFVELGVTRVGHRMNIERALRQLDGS

B1: Arhgap23 (protein, UniProt Q69ZH9 1-1483)
chain: MNGVAFCLVGIPPRPEPRPPQLPLGPRDGCSSGRPLPWPGPRTLLLRKSLQDGFGFTLRHFIVYPPESAVHCILKEEENGGRGGGPSPRHRLEPMDTIFVKNVKDGGPAHRAGLRTGDRLVKVNGESIIGKTYSQVIGLIQNSDDTLELSIMPKDEDILQLAYSQDAYLKGNEPYSGEARSIPEPPPLCYPRKTYAPPTRAPAWATMVPEPISALPPDPRSPAAWSDPGSRVPSATRAHLDNSSLGMSQPRPSPGAFPHLPSESRTPRAFPEPGSRVLPSRLECQQALSHWLSNQIPRRAGERRCPAMPPRARSASQDRLEDVTTHHPWPCSTSQDALSQLGQEGWHRARSDDYLSRATRSAEALGPGALVSPRLERCGWASQRPSARTSACPSRDLTQAPPPSGLQGLDDIGYIGYRSYSPSFQRRTGLLHALSFRDSPFGGLPTFSLAQSPASFPPEASEPPRVVRPDPSTRALEPPAEDHRDEVVLRQKPPTGRKVQLTPARQMNLGFGDESPEPEARGERLGRKVAPLATTEDSLASIPFIDEPTSPSIDLQAKHVPASAVVSSAMNSAPVLGTSPSSPTFTFALSRHYSQDCSSIKAGRRSSYLLAITTERSKSCDDGLNTFRDEGRVLRRLPSRVPSLRVLRSFFTDGSLDSWGTSEDADAPSKRHSTSDLSDATFSDIRREGWLYYKQILTKKGKKAGGGLRQWKRVYAVLRARSLSLSKERREPGPAAAGAAAAGAGEDEAAPVCIGSCLVDISYSETKRRHVFRLTTADFCEYLFQAEDRDDMLGWIRAIRENSRAEGEDPGCANQALISKKLNDYRKVSHSSGPKADSSPKGSRGLGGLKSEFLKQTAVRGLRTQEQPPGSKEDSVAAPKTPWGINIIKKNKKAAPRAFGIRLEECQPATENQRVPLIVAACCRIVEARGLESTGIYRVPGNNAVVSSLQEQLNRGPSDINLQDERWQDLNVISSLLKAFFRKLPEPLFTDDKYNDFIEANRIEDSRERMKTLRKLIRDLPGHYYETLKFLVGHLKTIADHSEKNKMEPRNLALVFGPTLVRTSEDNMTDMVTHMPDRYKIVETLIQHSDWFFSDDEDKGERTPVDDKEPQSVPNIEYLLPNIGRTVPPSDPGSDSTTCSSAKSKGSWVPKKEPYAREMLAISFISAVNRKRKKRREARGLGSSTDDDSEQEAHKAAVGTQEPPEGQLPGPAAEEAPGRLSPPTAPDERPAADTRSIVSGYSTLSTMDRSVCSGTGGRRAGAGDEADDERSELSHVETDTEGGAGPGGRLSRRPSFSSHHLMPCDTLARRRLSRSRAEAEGPGAGTARACPRGPEPPGSASSSSQESLRPPAAAPALGSRPSRVEALRLRLRGTADDMLAVRLRRPLSPETRRRRSSWRRHTVVVQSPLTDLNFNEWKELGGGGPQESVGVRPHSDNKDSGLSSLESTKARASSAASLPSGDLGALQGLPQRRSAAARLHQCL
B2: Abcd3 (protein, UniProt P55096 1-659)
chain: MAAFSKYLTARNTSLAGAAFLLLCLLHKRRRALGLHGKKSGKPPLQNNEKEGKKERAVVDKVFLSRLSQILKIMVPRTFCKETGYLLLIAVMLVSRTYCDVWMIQNGTLIESGIIGRSSKDFKRYLFNFIAAMPLISLVNNFLKYGLNELKLCFRVRLTRYLYEEYLQAFTYYKMGNLDNRIANPDQLLTQDVEKFCNSVVDLYSNLSKPFLDIVLYIFKLTSAIGAQGPASMMAYLLVSGLFLTRLRRPIGKMTIMEQKYEGEYRYVNSRLITNSEEIAFYNGNKREKQTIHSVFRKLVEHLHNFIFFRFSMGFIDSIIAKYVATVVGYLVVSRPFLDLAHPRHLHSTHSELLEDYYQSGRMLLRMSQALGRIVLAGREMTRLAGFTARITELMQVLKDLNHGRYERTMVSQQEKGIEGAQASPLVPGAGEIINTDNIIKFDHVPLATPNGDILIQDLSFEVRSGANVLICGPNGCGKSSLFRVLGELWPLFGGRLTKPERGKLFYVPQRPYMTLGTLRDQVIYPDGKEDQKKRGISDQVLKEYLDNVQLGHILEREGGWDSVQDWMDVLSGGEKQRMAMARLFYHKPQFAILDECTSAVSVDVEDYIYSHCRKVGITLFTVSHRKSLWKHHEYYLHMDGRGNYEFKKITEDTVEFGS

The molecules below were run against serotonin transporter, wildtype (WT SERT) (mouse (endogenous in midbrain synaptosomes)) (UniProt Q60857) (assay: affinity purification with mass spectrometry; SERT immunoprecipitated with C-terminal anti-SERT serum #48 cross-linked to protein A Dynabeads from midbrain synaptosomes (lysed in PBS + 0.7% DDM, 4°C) of WT, SERT Ala56 and SERT KO (negative control) mice; in-gel tryptic digestion, 8-step MudPIT LC-MS/MS; label-free quantification).

Row | Molecule | binding
1 | Myo18a (from UniProt Q9JMH9 1-2050) | binds
2 | Myo9a (from UniProt Q8C170 1-2542) | binds
3 | Cdc42bpb (from UniProt Q7TT50 1-1713) | binds
4 | Dgkz (from UniProt Q80UP3 1-929) | binds
5 | Ppp1ca (from UniProt P62137 1-330) | binds
6 | Arhgap32 (from UniProt Q811P8 1-2089) | binds
7 | Agap2 (from UniProt Q3UHD9 1-1186) | binds
8 | Prkar2a (from UniProt P12367 1-401) | binds
9 | Mark4 (from UniProt Q8CIP4 1-752) | binds
10 | Csnk1a1 (from UniProt Q8BK63 1-337) | binds
11 | Mark3 (from UniProt Q03141 1-753) | binds
12 | Bmp2k (from UniProt Q91Z96 1-1138) | binds
13 | Srgap3 (from UniProt Q812A2 1-1099) | binds
14 | Arhgap21 (from UniProt Q6DFV3 1-1945) | binds
15 | Phkg1 (from UniProt P07934 1-388) | binds
16 | NMDA receptor 2 (Grin2a) (from UniProt P35436 23-1464) | binds

Row | Molecule | binding
17 | Csnk2a1 (from UniProt Q60737 1-391) | binds
18 | calcium/calmodulin-dependent protein kinase type II subunit beta (from UniProt P28652 1-542) | binds
19 | Sipa1l1 (from UniProt Q8C0T5 1-1782) | binds
20 | Mthfd1 (from UniProt Q922D8 1-935) | binds
21 | Gria3 (from UniProt Q9Z2W9 23-888) | binds
22 | Arpc5l (from UniProt Q9D898 1-153) | binds
23 | SH3 and multiple ankyrin repeat domains protein 3 (from UniProt Q4ACU6 1-1730) | binds
24 | Gria4 (from UniProt Q9Z2W8 21-902) | binds
25 | Magi2 (from UniProt Q9WVQ1 1-1275) | binds
26 | catalytic C subunit of the PP2A holoenzyme (from UniProt P63330) | binds
27 | Macf1 (from UniProt Q9QXZ0 1-7354) | binds
28 | Cdk18 (from UniProt Q04899 1-451) | binds
29 | Mitogen-activated protein kinase 3 (from UniProt Q63844 1-380) | binds
30 | Mast1 (from UniProt Q9R1L5 1-1570) | binds
31 | B1 | binds
32 | B2 | binds

No constants are given. Whether binding was seen depends on the method and setting. Binding seen in cells or lysates may run through a third protein. Here binding means that the protein was enriched with, or labelled near, the bait; the list need not be complete.
